# Source: CN113583125A
# Amino acid sequences for entries named in this document (tags omitted). A change or cut given only in a name is not applied to a line headed by its entry.
# UniProt P01215: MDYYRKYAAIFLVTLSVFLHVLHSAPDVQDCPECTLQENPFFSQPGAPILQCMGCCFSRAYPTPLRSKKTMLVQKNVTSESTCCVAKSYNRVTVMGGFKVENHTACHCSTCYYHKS
# Changes are numbered by the printed parent chain. These are yes or no findings as the source states them, for the method shown. Some results given as binding are weak or reduced against the parent protein; the word gives no strength.
# B1: SEQ ID NO:13蛋白 (VHH-sgs-HHHHHH) (VHH)
# VHH: QVQVAESGGGLVQSGGSMNLSCTASGNLVSVDAMGWFRQAPGEEREAVAAIMWSGDSTYYANAVKGRFTISRDNAKNTVYLQMNSLKPEDTAVYYCAARLQEEGWWDYWGQGTQVTVSS
# B2: SEQ ID NO:14蛋白 (VHH-sgs-HHHHHH) (VHH)
# VHH: B1 VHH with N27R, L28T, V29F, V31S, D32H
# B3: SEQ ID NO:15蛋白 (VHH-sgs-HHHHHH) (VHH)
# VHH: QVQVVESGGGLVQAGDSLRLSCAARTGSFSSYAMGWFRQAPGKEREAVAAITWSGGSTYYADSVKGRFTISRDNTKNTVYLQMNSLKPEDTAVYYCAARDRADWYSWWDYWGQGTQVTVSS
# Target: SEQ ID NO:1蛋白 (FSH、hCG、TSH、FSH-CTP和hLH共同α链) (Homo sapiens (Human)) (UniProt P01215)
# Experiment: Phage ELISA screen, VHH displayed on phage
row,binding,Binder
1,binds,B1
2,binds,B2
3,binds,B3
